Data: the supplement of paper PMC12889115
The other results are listed elsewhere or left out. Values are raw readings; no control value is given beside them.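 In the initial screen, polymyxin B was used at a concentration that permeabilizes Salmonella's outer membrane but not its inner membrane. Maximum growth was set by DMSO wells with or without polymyxin B. Since plates varied, data were ranked per plate, and compounds giving the lowest OD600 advanced as hits.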

Tested on: Salmonella enterica serovar Typhimurium SL1344
Test: bacterial growth OD600 after 18 h with compound and polymyxin B; higher = more bacterial growth (less inhibition)
Settings: 50 µM, Mueller-Hinton broth

| SMILES | bacterial growth OD600 (polymyxin B 0.75 µg/mL) | bacterial growth OD600 (polymyxin B 1 µg/mL) |
| --- | --- | --- |
| COC(=O)[C@@H]1CCCN1C(=O)C1CCN(c2nc(C)c3ccc(S(C)(=O)=O)cc3n2)CC1 | 0.843 |  |
| COC(=O)CCC(=O)N1CCCC(N2CCN(c3cccc(C(F)(F)F)c3)CC2)C1 (configuration not stated) |  | 0.97 |
| CC1CN(CC(=O)NCc2nc(-c3ccccc3)cs2)Cc2cc(Cl)ccc2O1 (configuration not stated) | 0.005 |  |
| CN(C(=O)c1ccco1)C(Cc1ccccc1Cl)C1CCN(Cc2cccc3cccnc23)CC1 (configuration not stated) | 0.836 |  |
| C=CC[C@@H]1CC=C[C@@H](C)N1C(=O)CC1(c2ccccc2OC)CC(=O)N(CCCOC)C1=O (some centres not stated) | 0.008 |  |
| O=C1CCCCN1CC(=O)N1CCc2[nH]nc(-c3ccc(Cl)cc3)c2C1 | 0.766 |  |
| COc1ccccc1N1CCN(c2nc(CNC(=O)c3cccc(F)c3)nc3ccccc23)CC1 | 0.75 |  |
| O=C(Cn1nnnc1CN1CCCCCC1)N1CC[C@@H](O)C1 | 0.846 |  |
| CC(NC(=O)c1ccc2oc(CCc3ccccc3)nc2c1)c1ccncn1 (configuration not stated) | 0.781 |  |
| CCN1CCCC1CNC(=O)CCC1CCN(Cc2ccc(Cl)s2)CC1 (configuration not stated) |  | 0.943 |
| COC(=O)c1ccc(-c2nc(CN(C)C(C)c3ccon3)c(C)o2)cc1 (configuration not stated) |  | 0.838 |
| COc1ccc(CN2CCN(CC3CCCCC3)C(CCO)C2)cc1OC (configuration not stated) |  | 0.94 |
| CN(C(=O)c1ccc(OC2CCN(C(=O)C3CC3)CC2)cc1)C1CCCc2ccccc21 (configuration not stated) |  | 0.704 |
| Cc1ccc(OCCN(C)C(=O)C2CC23CCN(Cc2cccs2)CC3)cc1 (configuration not stated) | 0.635 |  |
| Cc1ccccc1N1C(=O)CN(C(=O)c2c(-c3ccccc3)noc2C)CC1C (configuration not stated) | 0.853 |  |
| COc1ccc(OC2CCN(C(C)=O)CC2)c(C(=O)NCc2ccccc2F)c1 |  | 0.458 |

| SMILES | bacterial growth OD600 (polymyxin B 0.75 µg/mL) | bacterial growth OD600 (polymyxin B 1 µg/mL) |
| --- | --- | --- |
| CN(Cc1ccc(F)cc1)C(=O)C1CCCN(C2CCN(C(=O)C3CC3)CC2)C1 (configuration not stated) | 0.88 |  |
| O=C(NC1CC1)C1CCCN(C2CCN(C3CCCC3)CC2)C1 (configuration not stated) |  | 0.947 |
| COc1ccc(C2c3[nH]c4ccccc4c3CCN2C(=O)Cn2[nH]c(=O)ccc2=O)cc1C (configuration not stated) |  | 1.06 |
| FC(F)(F)c1cccc(N2CCN(C3CCCN(Cc4ccc5nonc5c4)C3)CC2)c1 (configuration not stated) |  | 0.024 |
| O=C(/C=C/c1ccccc1F)NCC1CC(Cc2cccc(F)c2)=NO1 (configuration not stated) | 0.662 |  |
| COc1ccccc1CCNC(=O)c1cc(NS(C)(=O)=O)cc2ncn(CCc3ccccc3)c12 | 0.769 |  |
| COc1ccccc1C1CN(Cc2ccoc2)Cc2ccccc2O1 (configuration not stated) | 0.127 |  |
| CCC1CN(CCNC(=O)Cc2c(F)cc(F)cc2F)Cc2cc(OC)ccc2O1 (configuration not stated) | 0.784 |  |
| COc1cc(-c2cnnc(NCc3cc(C)no3)n2)cc(OC)c1OC | 0.742 |  |
| O=C(NCCN1Cc2ccccc2OC(c2ccccc2)C1)C1CC=CCC1 (configuration not stated) | 0.7 |  |
| CN1CCN(Cc2nc(C(c3ccccc3)c3ccccc3)no2)CC1c1ccccc1 (configuration not stated) | 0.079 |  |
| c1cc(N2CCCOCC2)ncc1-c1nc(C2CC2)no1 | 0.76 |  |
| CCS(=O)(=O)N1CCC2(CCCN(Cc3ccc(C(C)C)cc3)C2=O)C1 (configuration not stated) |  | 0.89 |
| O=C1CC(NCc2nc3ccccc3[nH]2)CN1Cc1ccccc1C(F)(F)F (configuration not stated) |  | 0.962 |
| Cc1ccccc1CCC1CCCN(C(=O)CCn2cccn2)C1 (configuration not stated) | 0.625 |  |
| CN(Cc1ccccc1)C(=O)CCC1CCN(C(=O)Nc2ccc3c(c2)OCO3)CC1 |  | 0.828 |

Grouped by structure: the entries above with a furan ring, fused or not.

| SMILES | bacterial growth OD600 (polymyxin B 0.75 µg/mL) | bacterial growth OD600 (polymyxin B 1 µg/mL) |
| --- | --- | --- |
| CN(C(=O)c1ccco1)C(Cc1ccccc1Cl)C1CCN(Cc2cccc3cccnc23)CC1 (configuration not stated) | 0.836 |  |
| COc1ccccc1C1CN(Cc2ccoc2)Cc2ccccc2O1 (configuration not stated) | 0.127 |  |
